Data reported in the supplement of paper PMC6411743.
± gives the standard deviation of the averaged measurements. Some of the results follow.

Sequences of proteins named here, by UniProt entry; tags and fusion partners are left off. A change or cut given only in a name is not applied to a line headed by its entry.
UniProt Q00325: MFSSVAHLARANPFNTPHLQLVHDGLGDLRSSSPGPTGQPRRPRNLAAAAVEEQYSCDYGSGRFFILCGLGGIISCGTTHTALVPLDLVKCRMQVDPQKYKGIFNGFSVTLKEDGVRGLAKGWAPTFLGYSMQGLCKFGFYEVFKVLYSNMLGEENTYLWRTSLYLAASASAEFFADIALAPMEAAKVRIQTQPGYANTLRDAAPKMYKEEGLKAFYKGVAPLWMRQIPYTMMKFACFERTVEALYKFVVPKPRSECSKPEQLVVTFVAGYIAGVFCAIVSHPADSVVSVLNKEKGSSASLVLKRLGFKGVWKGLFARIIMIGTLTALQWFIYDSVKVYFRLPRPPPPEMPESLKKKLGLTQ
UniProt P56559: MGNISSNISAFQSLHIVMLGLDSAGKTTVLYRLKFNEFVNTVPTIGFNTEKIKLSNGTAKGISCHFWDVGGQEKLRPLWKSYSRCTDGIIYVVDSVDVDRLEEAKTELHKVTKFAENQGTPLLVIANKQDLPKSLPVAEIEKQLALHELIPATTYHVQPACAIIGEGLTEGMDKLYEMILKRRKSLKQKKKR
UniProt P53990, whole entry: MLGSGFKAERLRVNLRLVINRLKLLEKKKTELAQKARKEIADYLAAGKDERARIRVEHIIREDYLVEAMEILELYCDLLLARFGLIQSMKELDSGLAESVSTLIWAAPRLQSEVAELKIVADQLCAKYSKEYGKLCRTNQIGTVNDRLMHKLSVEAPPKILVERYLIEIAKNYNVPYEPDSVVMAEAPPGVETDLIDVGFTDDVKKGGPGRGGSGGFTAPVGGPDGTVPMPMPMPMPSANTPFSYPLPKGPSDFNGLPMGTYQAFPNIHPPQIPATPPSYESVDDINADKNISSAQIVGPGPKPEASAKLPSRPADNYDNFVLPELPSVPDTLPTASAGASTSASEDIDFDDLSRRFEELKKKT
UniProt P62318, whole entry: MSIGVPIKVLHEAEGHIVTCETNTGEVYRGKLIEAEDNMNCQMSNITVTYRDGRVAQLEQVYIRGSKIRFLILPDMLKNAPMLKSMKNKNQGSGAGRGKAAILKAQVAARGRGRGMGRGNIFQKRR
UniProt P50452: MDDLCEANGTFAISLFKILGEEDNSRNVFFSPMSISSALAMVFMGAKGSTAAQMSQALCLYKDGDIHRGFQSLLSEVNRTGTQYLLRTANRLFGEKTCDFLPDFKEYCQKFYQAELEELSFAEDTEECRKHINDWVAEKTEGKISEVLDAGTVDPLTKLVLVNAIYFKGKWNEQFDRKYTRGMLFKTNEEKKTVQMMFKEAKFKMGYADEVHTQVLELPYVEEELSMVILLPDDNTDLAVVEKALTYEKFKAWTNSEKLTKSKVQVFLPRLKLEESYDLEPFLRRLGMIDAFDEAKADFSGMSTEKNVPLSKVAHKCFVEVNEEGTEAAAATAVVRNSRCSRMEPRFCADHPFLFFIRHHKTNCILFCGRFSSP
UniProt P98179: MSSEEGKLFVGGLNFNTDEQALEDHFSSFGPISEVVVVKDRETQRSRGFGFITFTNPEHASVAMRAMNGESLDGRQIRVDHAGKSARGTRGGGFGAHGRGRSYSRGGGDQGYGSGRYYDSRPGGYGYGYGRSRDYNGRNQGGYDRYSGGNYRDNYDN
UniProt Q00266: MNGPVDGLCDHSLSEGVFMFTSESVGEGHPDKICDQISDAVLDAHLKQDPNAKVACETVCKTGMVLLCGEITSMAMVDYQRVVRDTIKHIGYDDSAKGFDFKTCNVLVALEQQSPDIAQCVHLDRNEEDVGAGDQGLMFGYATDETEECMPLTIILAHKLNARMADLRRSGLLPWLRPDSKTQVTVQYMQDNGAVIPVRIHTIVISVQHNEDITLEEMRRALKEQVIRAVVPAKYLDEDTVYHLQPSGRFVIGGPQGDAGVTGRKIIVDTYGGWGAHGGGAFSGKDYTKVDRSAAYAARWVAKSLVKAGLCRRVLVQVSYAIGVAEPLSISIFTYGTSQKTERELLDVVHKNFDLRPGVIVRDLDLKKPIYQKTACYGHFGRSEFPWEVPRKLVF
UniProt P53621: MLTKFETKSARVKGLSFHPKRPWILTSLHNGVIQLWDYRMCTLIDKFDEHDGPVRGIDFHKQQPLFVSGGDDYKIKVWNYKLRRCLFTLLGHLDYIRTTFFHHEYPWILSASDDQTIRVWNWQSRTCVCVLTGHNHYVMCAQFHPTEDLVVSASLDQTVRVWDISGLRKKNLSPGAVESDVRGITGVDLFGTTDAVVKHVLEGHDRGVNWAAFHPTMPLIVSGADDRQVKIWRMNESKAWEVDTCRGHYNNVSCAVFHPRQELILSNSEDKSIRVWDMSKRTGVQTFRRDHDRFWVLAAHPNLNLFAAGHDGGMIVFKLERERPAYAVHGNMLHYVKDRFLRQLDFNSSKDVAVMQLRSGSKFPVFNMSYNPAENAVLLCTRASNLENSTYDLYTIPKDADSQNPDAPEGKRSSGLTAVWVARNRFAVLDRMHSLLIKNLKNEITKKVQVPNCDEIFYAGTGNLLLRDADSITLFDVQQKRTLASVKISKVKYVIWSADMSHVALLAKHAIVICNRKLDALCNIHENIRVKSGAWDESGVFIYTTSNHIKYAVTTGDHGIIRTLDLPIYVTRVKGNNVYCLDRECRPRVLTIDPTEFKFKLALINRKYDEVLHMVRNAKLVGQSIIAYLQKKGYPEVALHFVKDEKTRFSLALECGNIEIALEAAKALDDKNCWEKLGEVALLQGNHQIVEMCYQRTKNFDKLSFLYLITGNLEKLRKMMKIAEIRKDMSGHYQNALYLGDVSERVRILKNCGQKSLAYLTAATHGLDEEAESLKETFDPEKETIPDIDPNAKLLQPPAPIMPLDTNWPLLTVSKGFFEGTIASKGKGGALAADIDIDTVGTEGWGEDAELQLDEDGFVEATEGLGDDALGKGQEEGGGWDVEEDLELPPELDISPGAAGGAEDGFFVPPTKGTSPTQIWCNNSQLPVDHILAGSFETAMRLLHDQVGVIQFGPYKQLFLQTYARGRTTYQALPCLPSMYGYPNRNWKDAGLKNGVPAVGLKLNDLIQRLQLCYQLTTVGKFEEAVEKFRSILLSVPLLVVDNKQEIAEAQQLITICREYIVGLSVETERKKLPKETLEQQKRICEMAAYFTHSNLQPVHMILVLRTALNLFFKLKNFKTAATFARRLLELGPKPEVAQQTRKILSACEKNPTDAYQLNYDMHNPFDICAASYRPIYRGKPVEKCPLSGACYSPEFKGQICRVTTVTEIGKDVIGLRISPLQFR
UniProt P53367: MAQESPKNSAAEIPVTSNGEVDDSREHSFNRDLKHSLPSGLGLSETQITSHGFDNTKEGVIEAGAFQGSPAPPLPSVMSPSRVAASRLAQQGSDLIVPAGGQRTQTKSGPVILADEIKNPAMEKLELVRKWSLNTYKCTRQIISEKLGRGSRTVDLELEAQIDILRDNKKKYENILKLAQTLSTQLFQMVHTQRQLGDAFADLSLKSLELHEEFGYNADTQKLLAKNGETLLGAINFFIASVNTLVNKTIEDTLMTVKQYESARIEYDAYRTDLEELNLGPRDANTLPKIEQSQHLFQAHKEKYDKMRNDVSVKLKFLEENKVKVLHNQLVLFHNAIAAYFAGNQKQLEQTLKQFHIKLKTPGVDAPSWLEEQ
UniProt Q00403, whole entry: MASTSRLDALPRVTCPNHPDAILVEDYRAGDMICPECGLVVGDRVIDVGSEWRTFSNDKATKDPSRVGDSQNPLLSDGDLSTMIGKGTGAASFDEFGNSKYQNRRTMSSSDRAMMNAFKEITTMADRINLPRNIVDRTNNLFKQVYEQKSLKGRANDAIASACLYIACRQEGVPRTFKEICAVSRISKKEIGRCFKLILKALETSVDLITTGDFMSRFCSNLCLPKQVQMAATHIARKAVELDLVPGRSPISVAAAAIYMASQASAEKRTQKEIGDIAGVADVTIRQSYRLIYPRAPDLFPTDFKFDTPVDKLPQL
UniProt P53602: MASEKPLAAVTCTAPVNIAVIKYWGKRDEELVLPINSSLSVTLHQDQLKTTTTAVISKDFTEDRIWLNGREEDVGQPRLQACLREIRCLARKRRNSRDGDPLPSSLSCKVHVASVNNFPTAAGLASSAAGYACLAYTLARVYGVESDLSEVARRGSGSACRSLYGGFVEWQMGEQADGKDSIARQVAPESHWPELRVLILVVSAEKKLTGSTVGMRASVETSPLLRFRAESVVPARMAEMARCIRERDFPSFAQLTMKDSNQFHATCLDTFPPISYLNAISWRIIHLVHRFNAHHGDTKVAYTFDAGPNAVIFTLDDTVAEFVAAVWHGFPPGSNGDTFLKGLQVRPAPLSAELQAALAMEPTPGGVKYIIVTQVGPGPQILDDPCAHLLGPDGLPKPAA
UniProt P60520, whole entry: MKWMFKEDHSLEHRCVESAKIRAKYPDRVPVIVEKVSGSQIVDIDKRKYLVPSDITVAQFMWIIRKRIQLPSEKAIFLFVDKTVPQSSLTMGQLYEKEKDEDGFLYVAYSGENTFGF
UniProt P52732: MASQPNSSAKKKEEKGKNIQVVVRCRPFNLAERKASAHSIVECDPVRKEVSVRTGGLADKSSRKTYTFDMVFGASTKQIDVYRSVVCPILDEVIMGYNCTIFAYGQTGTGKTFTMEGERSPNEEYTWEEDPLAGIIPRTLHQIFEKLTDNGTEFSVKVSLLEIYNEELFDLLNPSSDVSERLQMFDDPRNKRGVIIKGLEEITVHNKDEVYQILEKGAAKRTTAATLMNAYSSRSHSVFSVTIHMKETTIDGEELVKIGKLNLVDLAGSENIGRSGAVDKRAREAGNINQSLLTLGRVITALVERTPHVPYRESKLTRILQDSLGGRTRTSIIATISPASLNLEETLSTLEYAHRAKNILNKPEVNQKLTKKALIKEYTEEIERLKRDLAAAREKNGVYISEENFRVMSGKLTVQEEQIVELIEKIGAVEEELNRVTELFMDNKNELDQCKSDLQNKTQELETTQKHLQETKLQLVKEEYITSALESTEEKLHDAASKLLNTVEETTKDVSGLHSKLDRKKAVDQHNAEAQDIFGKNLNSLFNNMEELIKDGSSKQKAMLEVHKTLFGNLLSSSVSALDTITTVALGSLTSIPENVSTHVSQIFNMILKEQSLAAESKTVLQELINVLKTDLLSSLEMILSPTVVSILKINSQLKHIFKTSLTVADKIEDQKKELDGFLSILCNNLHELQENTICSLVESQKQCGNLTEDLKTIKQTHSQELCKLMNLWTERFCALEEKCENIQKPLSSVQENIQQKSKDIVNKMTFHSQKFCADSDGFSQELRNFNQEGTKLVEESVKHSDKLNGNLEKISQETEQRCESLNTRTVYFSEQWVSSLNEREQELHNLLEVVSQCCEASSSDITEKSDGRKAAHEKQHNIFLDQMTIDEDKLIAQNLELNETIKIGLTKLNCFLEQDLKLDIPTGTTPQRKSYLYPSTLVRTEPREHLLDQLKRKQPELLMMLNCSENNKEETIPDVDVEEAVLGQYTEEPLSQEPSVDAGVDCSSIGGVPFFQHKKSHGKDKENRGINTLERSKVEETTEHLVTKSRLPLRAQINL
UniProt P51665: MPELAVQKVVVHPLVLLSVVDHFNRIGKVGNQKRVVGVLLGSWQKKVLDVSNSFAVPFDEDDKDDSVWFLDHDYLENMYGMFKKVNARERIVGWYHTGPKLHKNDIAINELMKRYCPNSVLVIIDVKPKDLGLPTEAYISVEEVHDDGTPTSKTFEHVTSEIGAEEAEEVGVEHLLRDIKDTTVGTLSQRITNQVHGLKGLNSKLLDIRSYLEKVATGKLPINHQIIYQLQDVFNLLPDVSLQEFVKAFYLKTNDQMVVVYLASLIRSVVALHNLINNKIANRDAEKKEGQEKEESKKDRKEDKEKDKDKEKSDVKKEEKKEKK
UniProt P60891: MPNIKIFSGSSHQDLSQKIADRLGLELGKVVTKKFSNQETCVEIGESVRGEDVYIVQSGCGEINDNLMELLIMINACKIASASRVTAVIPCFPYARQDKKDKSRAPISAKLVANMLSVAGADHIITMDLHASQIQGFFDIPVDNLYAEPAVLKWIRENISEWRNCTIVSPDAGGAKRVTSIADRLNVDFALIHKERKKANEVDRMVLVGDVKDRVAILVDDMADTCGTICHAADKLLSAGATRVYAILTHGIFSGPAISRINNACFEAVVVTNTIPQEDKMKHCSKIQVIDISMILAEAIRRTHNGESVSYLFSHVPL
UniProt P63279, whole entry: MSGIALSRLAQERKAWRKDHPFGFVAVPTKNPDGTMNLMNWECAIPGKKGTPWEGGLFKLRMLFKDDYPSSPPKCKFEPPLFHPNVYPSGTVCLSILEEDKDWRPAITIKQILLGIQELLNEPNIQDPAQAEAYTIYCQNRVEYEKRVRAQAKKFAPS
UniProt P61024, whole entry: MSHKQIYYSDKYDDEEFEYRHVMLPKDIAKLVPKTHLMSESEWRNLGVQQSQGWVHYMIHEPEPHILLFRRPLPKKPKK
UniProt P61006: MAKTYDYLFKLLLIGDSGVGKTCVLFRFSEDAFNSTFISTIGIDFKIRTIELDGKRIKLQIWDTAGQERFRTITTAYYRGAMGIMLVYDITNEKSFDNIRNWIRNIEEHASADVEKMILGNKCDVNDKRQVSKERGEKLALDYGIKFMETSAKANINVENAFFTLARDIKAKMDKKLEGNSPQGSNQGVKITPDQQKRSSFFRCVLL

compound: Nc1nc2c(ncn2[C@@H]2O[C@H](COP(=O)(O)OP(=O)(O)OP(=O)(O)O)[C@@H](O)[C@H]2O)c(=O)[nH]1 [guanosine triphosphate]; assay: NP40-soluble protein abundance relative to vehicle (solubility fold change) (ratio); higher = more soluble protein in presence of GTP; details: concentration: 2mM
How it was run: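 Crude Jurkat lysate, prepared by Dounce homogenisation, was exposed to eight concentrations from 0.1 to 10 mM for 10 min at room temperature and then 3 min at 37 °C. Solubilisation used 0.8% NP40 with benzonase for 60 min at 4 °C, followed by ultracentrifugation and TMT labelling of the supernatant for LC-MS/MS. After vsn normalisation of intensities, each value is the fold change against the detergent-processed vehicle within each replicate, across three independent experiments.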

Target	NP40-soluble protein abundance
UniProt P50995 and related entries	0.896 ± 0.12
UniProt P63000 and related entries	1.03 ± 0.064
TPMT (UniProt P51580)	0.931 ± 0.083
UniProt Q00325 and related entries	0.944 ± 0.13
UniProt P62805	0.963 ± 0.053
UniProt P56559 and related entries	1.45 ± 0.19
UniProt P53990 and related entries	0.917 ± 0.071
UniProt P62318 and related entries	1.17 ± 0.1
UniProt P78310-5|P78310 and related entries	0.921 ± 0.12
SERPINB8 (UniProt P50452)	0.909 ± 0.025
RBM3 (UniProt P98179)	1.04 ± 0.066

same assay, conditions: concentration: 4mM

Target	NP40-soluble protein abundance
UniProt P56159 and related entries	0.96 ± 0.059
MAT1A (UniProt Q00266)	1.01 ± 0.13
UniProt P53621 and related entries	1.05 ± 0.13
RPL7A (UniProt P62424)	0.849 ± 0.11
KPNA2 (UniProt P52292)	1.041 ± 0.0083
UniProt P53367 and related entries	0.94 ± 0.07
GTF2B (UniProt Q00403)	1.02 ± 0.011
MVD (UniProt P53602)	0.897 ± 0.019
UniProt P60520	0.856 ± 0.048
STAT5B (UniProt P51692)	0.968 ± 0.062
KIF11 (UniProt P52732)	0.945 ± 0.022
PSMD7 (UniProt P51665)	1.02 ± 0.11
RASSF2 (UniProt P50749)	0.98 ± 0.1
CAPZA1 (UniProt P52907)	0.916 ± 0.088
UniProt P52306 and related entries	0.882 ± 0.045
UniProt P61978-2|P61978-3|Q5T6W2	0.891 ± 0.056
LMO4 (UniProt P61968)	0.95 ± 0.14
UniProt P55039 and related entries	0.951 ± 0.059
UniProt P60891	1.29 ± 0.23

Target	NP40-soluble protein abundance
UniProt P63279 and related entries	0.972 ± 0.043
UniProt P61024 and related entries	0.923 ± 0.043
UniProt P50750 and related entries	1.35 ± 0.11
UniProt P54687 and related entries	0.925 ± 0.08
UniProt P56270-2	0.981 ± 0.072
UniProt P63244 and related entries	0.823 ± 0.17
RAB8A (UniProt P61006)	0.812 ± 0.064
UniProt P78346 and related entries	1.16 ± 0.18
UniProt P50995 and related entries	0.914 ± 0.098
UniProt P63000 and related entries	1.03 ± 0.054
TPMT (UniProt P51580)	0.893 ± 0.1
UniProt Q00325 and related entries	0.939 ± 0.08
UniProt P62805	1.08 ± 0.048
UniProt P56559 and related entries	1.43 ± 0.22
UniProt P53990 and related entries	0.914 ± 0.082
UniProt P62318 and related entries	1.44 ± 0.26
UniProt P78310-5|P78310 and related entries	0.93 ± 0.21
SERPINB8 (UniProt P50452)	0.892 ± 0.053
RBM3 (UniProt P98179)	1.06 ± 0.07
